Experimental data taken from article PMC7242080.
No constants are given. Whether binding was seen depends on the method and setting. In cells and extracts the contact can be indirect. Some results given as binding are weak or reduced against the parent protein; the word gives no strength. Tags and fused reporters may be left off the sequences shown.

Biological target: T1, RPS4-HA (Arabidopsis thaliana (Col-0)) (UniProt Q9XGM3)
T1 sequence: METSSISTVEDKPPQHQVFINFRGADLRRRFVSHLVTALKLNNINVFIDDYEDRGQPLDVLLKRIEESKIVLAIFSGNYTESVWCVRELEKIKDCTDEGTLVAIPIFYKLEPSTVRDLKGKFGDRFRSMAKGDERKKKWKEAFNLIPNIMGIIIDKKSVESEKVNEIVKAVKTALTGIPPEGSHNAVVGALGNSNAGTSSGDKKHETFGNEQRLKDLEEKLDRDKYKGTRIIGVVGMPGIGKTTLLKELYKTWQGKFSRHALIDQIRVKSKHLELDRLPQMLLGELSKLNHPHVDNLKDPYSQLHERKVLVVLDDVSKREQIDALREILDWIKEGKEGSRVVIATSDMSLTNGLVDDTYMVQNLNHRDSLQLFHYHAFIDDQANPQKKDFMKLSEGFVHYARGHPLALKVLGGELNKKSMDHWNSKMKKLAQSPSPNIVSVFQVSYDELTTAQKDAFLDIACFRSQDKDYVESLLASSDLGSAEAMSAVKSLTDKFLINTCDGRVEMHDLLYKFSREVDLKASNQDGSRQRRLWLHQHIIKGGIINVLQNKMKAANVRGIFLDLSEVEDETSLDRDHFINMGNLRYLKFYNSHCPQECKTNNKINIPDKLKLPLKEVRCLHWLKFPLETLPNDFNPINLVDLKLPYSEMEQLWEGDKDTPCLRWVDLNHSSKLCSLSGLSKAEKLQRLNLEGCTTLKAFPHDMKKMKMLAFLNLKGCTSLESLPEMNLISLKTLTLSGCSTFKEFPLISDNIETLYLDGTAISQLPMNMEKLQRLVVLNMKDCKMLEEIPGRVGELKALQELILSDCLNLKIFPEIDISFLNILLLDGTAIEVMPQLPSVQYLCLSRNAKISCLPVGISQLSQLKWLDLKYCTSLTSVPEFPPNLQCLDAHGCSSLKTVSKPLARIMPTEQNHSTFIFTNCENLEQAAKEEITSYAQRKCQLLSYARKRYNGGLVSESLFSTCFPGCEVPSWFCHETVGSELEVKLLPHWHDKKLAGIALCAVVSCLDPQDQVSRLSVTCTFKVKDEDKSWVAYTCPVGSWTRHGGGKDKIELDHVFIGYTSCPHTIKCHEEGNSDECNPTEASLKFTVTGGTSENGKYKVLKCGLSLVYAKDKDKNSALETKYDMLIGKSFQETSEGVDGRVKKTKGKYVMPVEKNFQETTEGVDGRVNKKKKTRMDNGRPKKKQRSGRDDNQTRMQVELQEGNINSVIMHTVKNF
Assay: co-IP; RPS4-HA immunoprecipitated with anti-HA-conjugated beads from crude extracts of SETI_WT and SETI_E187A seedlings (7 DAG) treated with 0.1% DMSO or 50 uM estradiol for 3 h; IP buffer 10% glycerol, 50 mM Tris-HCl pH 6.8, 50 mM KCl, 1 mM EDTA, 5 mM MgCl2, 1% NP-40, 10 mM DTT, 1 mM dATP; RRS1-R-HF detected by anti-Flag immunoblot

B1: RRS1-R-HF (protein, UniProt C4B7M5 1-1373)
chain: MTNCEKDEEFVCISCVEEVRYSFVSHLSEALRRKGINNVVVGVDSDDLLFKESQAKIEKAGVSVMVLPGNCDPSDVWLDKFAKVLECQRNNKDQAVVPVLYGDSLLRDQWLSELDFKGLSRIHQSRKECSDSILVEEIVRDVYETHFYVGRIGIYSKLLEIENMVNKQPIGIRCVGIWGMPGIGKTTLAKAVFDQMSSAFDASCFIEDYDKSIHEKGLYCLLEEQLLPGNDATIMKLSSLRDRLNSKRVLVVLDDVRNALVGESFLEGFDWLGPGSLIIITSRDKQVFCLCGINQIYEVQGLNEKEARQLFLLSASIKEDMGEQNLQELSVRVINYANGNPLAINVYGRELKGKKKLSEMETAFLKLKRRPPFKIVDAFKSTYDTLSDNEKNIFLDIACFFQGENVNYVIQLLEGCGFFPHVEIDVLVDKCLVTISENRVWLHKLTQDIGREIINGETVQIERRRRLWEPWSIKYLLEYNEHKANGEPKTTFKRAQGSEEIEGLFLDTSNLRFDLQPSAFKNMLNLRLLKIYCSNPEVHPVINFPTGSLHSLPNELRLLHWENYPLKSLPQNFDPRHLVEINMPYSQLQKLWGGTKNLEMLRTIRLCHSHHLVDIDDLLKAENLEVIDLQGCTRLQNFPAAGRLLRLRDVNLSGCIKIKSVLEIPPNIEKLHLQGTGILALPVSTVKPNHRELVNFLTEIPGLSEASKLERLTSLLESNSSCQDLGKLICLELKDCSCLQSLPNMANLDLNVLDLSGCSSLNSIQGFPRFLKQLYLGGTAIREVPQLPQSLEILNAHGSCLRSLPNMANLEFLKVLDLSGCSELETIQGFPRNLKELYFAGTTLREVPQLPLSLEVLNAHGSDSEKLPMHYKFNNFFDLSQQVVNDFFLKTLTYVKHIPRGYTQELINKAPTFSFSAPSHTNQNATFDLQPGSSVMTRLNHSWRNTLVGFGMLVEVAFPEDYCDATDFGISCVCRWSNKEGRSCRIERNFHCWAPGKVVPKVRKDHTFVFSDVNMRPSTGEGNDPDIWAGLVVFEFFPINQQTKCLNDRFTVTRCGVRVINVATGNTSLENISLVLSLDPVEVSGYEVLRVSYDDLQEMDKVLFLYIASLFNDEDVDFVAPLIAGIDLDVSSGLKVLADVSLISVSSNGEIVMHSLQRQMGKEILHGQSMLLSDCESSMTENLSDVPKKEKKHRESKVKKVVSIPAIDEGDLWTWRKYGQKDILGSRFPRGYYRCAYKFTHGCKATKQVQRSETDSNMLAITYLSEHNHPRPTKRKALADSTRSTSSSICSAITTSASSRVFQNKDEPNKPHLPSSSTPPGNAAVLFKMTDMEEFQDNMEVDNDVVDTRTLALFPEFQHQPEEEYPWSTFFDY
binding: binds
